Data: patent publication US20240217988A1, “ESTROGEN RECEPTOR ANTAGONIST” (Shenzhen Forward Pharmaceuticals Co., Limited, priority 2021, published 2024)
pIC50: −log10 of the molar value.

Test system: Human breast cancer cells MCF-7
Test: MCF-7 cell proliferation experiment
Assay type: cell-based
Details: MCF7, MCF-7 cells, 72 hours, Cell Titer-Glo
Method: Test Example 2: MCF-7 Cell Proliferation Experiment
Human breast cancer cells MCF-7 (HTB-22, purchased from ATCC) were inoculated into a 96-well plate. The culture medium was an MEM (Hyclone, SH30024.01B) culture medium containing 10% of FBS (Gibco, 10099-141), 1% of pyruvic acid (Sigma, S8636), and 1% of nonessential amino acid (Sigma, M7145), and the inoculation density was 4,000 cells/well. The cells were cultured at 37° C., 5% CO2. The compound was prepared into a 20 mM stock solution, which was subjected to gradient dilution to a final concentration of […] with 100% DMSO (Sigma, D2650) and then diluted 20 folds with a culture medium containing 2% of FBS. After 24 hours of culture, the culture medium was removed, 90 μL of a culture medium containing 2% of FBS and 10 μL of drug were added to each well, while 10 μL of DMSO was added to the control group, and they were gently shaken and mixed. The blank group only contained 100 μL of 2% FBS culture medium. They were placed in an incubator and cultured at 37° C., 5% CO2. After 72 hours, 50 μL of mixed Cell Titer-Glo (Promega, G7571) was added. They were shaken and mixed uniformly, and placed at room temperature for 10 min. The chemiluminescence signal value was determined. The negative control was 0.5% DMSO well.

pIC50: 6.56
SMILES: CC/C(=C(\c1ccccc1)c1ccc(OCCN(C)C)cc1)c1ccccc1 [Tamoxifen, reference compound]
